# Test results taken from patent publication EP0315118 (dated 1989).
# Assay: general procedure: Boc solid-phase peptide synthesis; Boc-Trp(CHO)-PAM resin; dicyclohexyl carbodiimide (DCC)
# Settings: whole synthesis, scale 800 mg of 1.8 g protected peptide resin
substance,measurement,value
Cys Ser Cys Ser Ser Leu Met Asp Lys Glu Cys Val Tyr Phe Cys His Leu Asp Ile Ile Trp,isolated mass,120 mg
